In PubChem BioAssay AID720504 (National Center for Advancing Translational Sciences (NCATS), 2013):
“And” between values parts separate entries of the source, which are not always exact repeats. Equal entries are not always repeated. The campaign covered roughly 360,000 compounds. About 10,000 (2.8%) were called active. Inconclusive means that the source gave no clear call. Such entries were picked first, then a sample of the others. Calls follow the shape of the dose curve; as a rule, active = well fitted inhibition curve with a large enough effect; inconclusive = small, poorly fitted or top-dose-only effect; inactive = flat fitted curve, though single readings scatter. Where the call is inconclusive, the potency comes from a doubtful curve fit.

Sequences of proteins named here, by UniProt entry; tags and fusion partners are left off.
UniProt P53350, whole entry, looked up: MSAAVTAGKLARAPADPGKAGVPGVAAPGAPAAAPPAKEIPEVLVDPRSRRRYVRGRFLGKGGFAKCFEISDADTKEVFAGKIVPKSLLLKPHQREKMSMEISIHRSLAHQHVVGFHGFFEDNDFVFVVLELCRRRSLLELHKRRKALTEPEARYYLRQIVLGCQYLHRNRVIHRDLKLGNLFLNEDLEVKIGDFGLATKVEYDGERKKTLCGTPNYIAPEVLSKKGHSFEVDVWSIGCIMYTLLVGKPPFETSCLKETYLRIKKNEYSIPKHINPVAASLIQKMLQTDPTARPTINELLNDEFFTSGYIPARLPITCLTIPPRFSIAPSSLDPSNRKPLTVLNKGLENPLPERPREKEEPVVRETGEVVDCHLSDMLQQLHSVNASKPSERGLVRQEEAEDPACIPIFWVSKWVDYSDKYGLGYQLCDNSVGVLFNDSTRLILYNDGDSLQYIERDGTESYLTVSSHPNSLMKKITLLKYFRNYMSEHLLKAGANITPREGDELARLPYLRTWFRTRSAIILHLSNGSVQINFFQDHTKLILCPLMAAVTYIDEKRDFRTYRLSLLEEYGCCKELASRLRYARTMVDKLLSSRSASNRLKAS

The compounds below were run against Serine/threonine-protein kinase PLK1 (Homo sapiens) (UniProt P53350) (assay: qHTS for Inhibitors of PLK1-PDB (polo-like kinase 1 - polo-box domain): Primary Screen). Details: Plk1 PBD binding of FITC phosphopeptide, fluorescence polarization.
% is scaled to controls: 0 for no effect and ±100 for the full control effect; potency is read from the fitted curve at half-maximal effect.
Also: nearly all actives have a fitted effect of over 65% in size.
For max response, negative = inhibition in this document: series mostly up to about 57 µM.

With `COc1ccc(C(C)=O)cc1CSc1ccccn1` as the compound, how does the max response, negative = inhibition read?
Its max response, negative = inhibition is inactive: -6.54%.

With `Cc1cc(NC(=O)CCS(=O)(=O)c2nc(-c3ccccc3)cc(C(F)(F)F)n2)no1` as the compound, how does the Potency read?
The Potency was inconclusive: 23.8 µM [inhibitor, partial curve].

With `CC(C)Cc1ccc(CN2C(C)C(=O)N(Cc3cn(Cc4ccco4)nn3)CCS2(=O)=O)cc1` (stereo unspecified) as the compound, how does the Potency read?
Its Potency is inconclusive: 23.8 µM [inhibitor, partial curve].

For `COc1ccccc1C(=O)NCC1(c2ccccc2)CCCC1`, which max response, negative = inhibition is on record?
Its max response, negative = inhibition is inactive: 3.9%.

With `CCOc1ccc(-n2c(SCC(N)=O)nnc2-c2ccco2)cc1` as the compound, how does the Potency read?
Its Potency is active: 15 µM.

For `COc1ccc(Br)cc1/C=N/Nc1cccc(C(=O)O)c1`, which Potency is on record?
The Potency was inconclusive: 29.9 µM [inhibitor, single point].

How did the max response, negative = inhibition turn out when `CCc1ccc(/C=C/C(=O)c2ccc(N3CCOCC3)cc2)cc1` was run?
Its max response, negative = inhibition is inactive: -7.89%.

With `CCC1Sc2ccc(S(=O)(=O)CCC(=O)Nc3ccc(NC(C)=O)cc3)cc2NC1=O` (stereo unspecified) as the compound, how does the max response, negative = inhibition read?
Its max response, negative = inhibition is inactive: -19.1%.

With `Cc1ccnc(OC(C(=O)O)C(OCc2ccccc2)(c2ccccc2)c2ccc(C(F)(F)F)cc2)n1` (stereo unspecified) as the compound, how does the Potency read?
Its Potency is inconclusive: 26.7 µM [inhibitor, partial curve].

`COc1cccc(N2[C@@H](CC(=O)O)c3ccc(/C=C/C(=O)O)cc3S2(=O)=O)c1` was tested. Which Potency did it give?
The Potency was inconclusive: 21.2 µM [inhibitor, partial curve].

Which Potency does the source give for `CCOc1ccc(N(CC(=O)N2CCN(c3ccccc3)CC2)S(=O)(=O)c2c(C)noc2C)cc1` here?
The Potency was inconclusive: 23.8 µM [inhibitor, partial curve].

`CC1CN(C2=NC(=O)/C(=C3/C(=O)N(Cc4ccc(F)cc4)c4ccccc43)S2)CC(C)O1` (stereo unspecified) was tested. Which Potency did it give?
Its Potency is inconclusive: 26.7 µM [inhibitor, partial curve].

How did the Potency turn out when `O=C1C=C(O)c2c(O)cc(O)c(O)c2C1=O` was run?
Its Potency is inconclusive: 29.9 µM [inhibitor, single point].

With `COc1ccc2c(C=Nc3c(C)n(C)n(-c4ccccc4)c3=O)c(O)n(Cc3ccco3)c(=O)c2c1` as the compound, how does the Potency read?
The Potency was inconclusive: 21.2 µM [inhibitor, partial curve] and inconclusive: 16.8 µM [inhibitor, partial curve].

For `O=C(COC(=O)c1ccc([N+](=O)[O-])o1)NC1CCCC1`, which max response, negative = inhibition is on record?
The max response, negative = inhibition was inactive: -18.8%.

How did the Potency turn out when `Cc1ccc(NC(=O)c2cc(N3C(=O)C=CC3=O)ccc2N2CCOCC2)cc1` was run?
The Potency was active: 2.99 µM.

`CC(=O)OCCCNc1cc(SCc2ccco2)c2nonc2c1[N+](=O)[O-]` was tested. Which Potency did it give?
The Potency was inconclusive: 9.47 µM [inhibitor, partial curve].

For `O=C(O)Cc1sc(-c2cccnc2)nc1-c1ccc(Br)cc1`, which Potency is on record?
Its Potency is inconclusive: 18.9 µM [inhibitor, partial curve].

For `O=c1[nH][nH]cc1C=Nc1ccc(Cl)cc1Cl`, which max response, negative = inhibition is on record?
Its max response, negative = inhibition is inactive: -3.41%.

How did the max response, negative = inhibition turn out when `C/C(COc1ccccc1)=N\NC(=O)c1nnn(-c2nonc2N)c1-c1ccc(C)cc1` was run?
Its max response, negative = inhibition is inactive: -7.46%.

Which Potency does the source give for `CC(C)(C)S(=O)N1Cc2cc(C(=O)O)nc(-c3cccc(-c4cc5ccccc5o4)c3)c2[C@H]1CCO` (stereo partly specified) here?
Its Potency is inconclusive: 13.4 µM [inhibitor, partial curve].

For `C=CCOc1nc(N(C)C)nc(N(C)C)n1`, which Potency is on record?
The Potency was inconclusive: 26.7 µM [inhibitor, single point].

How did the Potency turn out when `COc1ccc(CCNC(=O)CCNS(=O)(=O)c2ccc3c(c2)CCN3C(C)=O)cc1OC` was run?
The Potency was inconclusive: 26.7 µM [inhibitor, single point].

With `CSc1ccccc1NC(=O)Cn1nc([N+](=O)[O-])cc1C` as the compound, how does the Potency read?
The Potency was inconclusive: 26.7 µM [inhibitor, partial curve].

`CCOC(=O)C1CCN(S(=O)(=O)c2nc3nc(C)cc(C)n3n2)CC1` was tested. Which Potency did it give?
The Potency was active: 29.9 µM.

How did the max response, negative = inhibition turn out when `CN(Cc1ccccc1)C(=O)c1cccc(NC(=O)Cc2ccc(NC(=O)C3CCCN(C(=O)c4ccccc4)C3)cc2)c1` (stereo unspecified) was run?
Its max response, negative = inhibition is inactive: -5.87%.

For `COc1ccc(N2C(=O)CCC(C(=O)Nc3cccc(C)n3)C2c2ccc(OC)c(OC)c2)cc1` (stereo unspecified), which Potency is on record?
The Potency was inconclusive: 29.9 µM [inhibitor, partial curve].

How did the max response, negative = inhibition turn out when `Cc1ccc(Sc2cnn(-c3ccccc3)c(=O)c2Cl)cc1` was run?
Its max response, negative = inhibition is inactive: -0.285%.

How did the Potency turn out when `Cc1ccc(C)c(SCC(=O)Nc2ccc(C)c(S(=O)(=O)N3CCOCC3)c2)c1` was run?
Its Potency is inconclusive: 26.7 µM [inhibitor, partial curve].

Which Potency does the source give for `Cc1sc2ncnc(SCC(=O)Nc3ncccc3O)c2c1C` here?
Its Potency is inconclusive: 26.7 µM [inhibitor, partial curve].

`O=C(CN1CCN(c2ccccn2)CC1)Nc1cccc(F)c1` was tested. Which max response, negative = inhibition did it give?
The max response, negative = inhibition was inactive: -10.7%.

`O=C(O)c1ccc(N/N=C/c2ccc(-c3cccc(Cl)c3)o2)cc1` was tested. Which Potency did it give?
Its Potency is inconclusive: 26.7 µM [inhibitor, partial curve].

For `Cc1ccc(/C=N/NC(=O)CSc2nc3ccccc3o2)cc1`, which Potency is on record?
The Potency was inconclusive: 37.7 µM [inhibitor, single point].

How did the Potency turn out when `COc1ccccc1C(=O)Oc1cc(C)[nH]c(=O)c1[N+](=O)[O-]` was run?
The Potency was inconclusive: 29.9 µM [inhibitor, partial curve].

How did the max response, negative = inhibition turn out when `COc1ccc(S(=O)(=O)N2CCOC23CCN(S(=O)(=O)c2ccc(Cl)cc2)CC3)cc1` was run?
The max response, negative = inhibition was inactive: -3.02%.

`Cc1sc(NC(=O)C2CCCCC2)c(C#N)c1-c1ccccc1` was tested. Which Potency did it give?
The Potency was inconclusive: 29.9 µM [inhibitor, single point].

`Oc1c(Cl)cc(Cl)cc1/C=N/c1nccs1` was tested. Which Potency did it give?
Its Potency is active: 33.6 µM.

For `COCCNc1nc(-c2ccc(OC)cc2)c(-c2ccc(OC)cc2)s1`, which Potency is on record?
The Potency was inconclusive: 33.6 µM [inhibitor, single point].

How did the max response, negative = inhibition turn out when `CCOC(=O)c1c(CN2CCOCC2)oc2ccc(OC(C)=O)cc12` was run?
The max response, negative = inhibition was inactive: 5%.

With `Cc1nc2ccc(S(=O)(=O)NC(C(=O)N3CCCC3)C(C)C)cc2s1` (stereo unspecified) as the compound, how does the Potency read?
The Potency was active: 29.9 µM.

Which max response, negative = inhibition does the source give for `CCOc1ccccc1NC(=O)CSc1nc(=O)n(CCN2CCOCC2)c2c1CCCC2` here?
Its max response, negative = inhibition is inactive: -2.91%.

With `COc1cccc(-c2nc(SCC(=O)Nc3nc(-c4ccccc4)c(C)s3)[nH]c(=O)c2C#N)c1` as the compound, how does the Potency read?
The Potency was active: 21.2 µM.

How did the Potency turn out when `COc1ccc(C(=O)CCN2CCCC(C)C2)cc1` (stereo unspecified) was run?
Its Potency is inconclusive: 13.4 µM [inhibitor, partial curve].

How did the Potency turn out when `Cc1ccc(C)c(SCC(=O)NC(=O)NC2CCCC2)c1` was run?
Its Potency is inconclusive: 29.9 µM [inhibitor, partial curve].

With `COc1ccc(CCNC(=O)CSc2cccc3cccnc23)cc1OC` as the compound, how does the Potency read?
The Potency was inconclusive: 18.9 µM [inhibitor, partial curve, poor fit].

`c1ccc(CNc2nc(-c3cccnc3)cs2)cc1` was tested. Which max response, negative = inhibition did it give?
Its max response, negative = inhibition is inactive: -10.1%.

For `CC(=O)OCCN(C)c1cc(SC(C)C)c2nonc2c1[N+](=O)[O-]`, which Potency is on record?
Its Potency is inconclusive: 18.9 µM [inhibitor, partial curve].

For `CCC(=O)/C=C1\Sc2ccc(OC)cc2N1CC`, which Potency is on record?
The Potency was inconclusive: 29.9 µM [inhibitor, partial curve].

Which max response, negative = inhibition does the source give for `O=C(Cn1ncc2ccccc21)N1CCc2ccccc21` here?
The max response, negative = inhibition was inconclusive: -32.2% [inhibitor].

Which Potency does the source give for `CCS(=O)(=O)N1CCc2nc(-c3ccccc3)sc2C1` here?
Its Potency is inconclusive: 23.8 µM [inhibitor, partial curve].

How did the Potency turn out when `Cc1cccc(C(=O)n2c(=S)nc3cc(C)ccn32)c1` was run?
The Potency was active: 21.2 µM.

With `CCS(=O)(=O)c1ccc(-c2csc(-c3ccccc3Cl)n2)c(Cl)c1Cl` as the compound, how does the Potency read?
The Potency was inconclusive: 26.7 µM [inhibitor, partial curve].

With `COc1ccc(N2CC(O)=C(c3nc(-c4ccccc4)cs3)C2=N)cc1` as the compound, how does the Potency read?
Its Potency is active: 13.4 µM.

`Cc1ccc(NCCC(=O)c2cccc([N+](=O)[O-])c2)c(C)c1` was tested. Which Potency did it give?
The Potency was inconclusive: 21.2 µM [inhibitor, partial curve].

Which max response, negative = inhibition does the source give for `Cn1c(=O)c2cc(NC(=O)NCCc3ccccc3)ccc2n1Cc1ccc(F)cc1` here?
Its max response, negative = inhibition is inactive: -21.6%.

With `O=[N+]([O-])c1cccc(-c2noc3c2-c2nc(Cc4cccc5ccccc45)sc2CC3)c1` as the compound, how does the Potency read?
The Potency was inconclusive: 23.8 µM [inhibitor, partial curve].

`CCC1(CC)SC(N)=NC1=O` was tested. Which Potency did it give?
The Potency was inconclusive: 23.8 µM [inhibitor, partial curve].

Which Potency does the source give for `CCOCCCNC(=O)CSCc1nc(-c2ccc(SC)cc2)oc1C` here?
Its Potency is active: 29.9 µM.

For `COc1ccc(/C=C2\SC(=S)N(NS(=O)(=O)c3ccc(C)cc3)C2=O)c(OC)c1`, which Potency is on record?
The Potency was inconclusive: 29.9 µM [inhibitor, partial curve].

How did the max response, negative = inhibition turn out when `CC1SC(=NC(=O)c2ccco2)NC1=O` (stereo unspecified) was run?
The max response, negative = inhibition was inactive: -29.8%.

How did the Potency turn out when `Cc1ccc([N+](=O)[O-])cc1NC(=O)c1ccoc1C` was run?
The Potency was active: 29.9 µM.

For `COc1cc(C(=O)N/N=C(\C)c2ccc3c(c2)OCO3)cc(OC)c1OC`, which Potency is on record?
The Potency was inconclusive: 26.7 µM [inhibitor, single point].

For `CN(Cc1ccccc1)c1ncnc2ccc(Br)cc12`, which Potency is on record?
Its Potency is active: 2.67 µM.

`Cc1nc2nc(Cc3ccccc3)nn2c(C)c1Cl` was tested. Which max response, negative = inhibition did it give?
Its max response, negative = inhibition is inactive: -8.16%.

Which max response, negative = inhibition does the source give for `COc1ccc(C(=O)OCC(=O)Nc2ccc3[nH]c(=O)[nH]c3c2)cc1` here?
The max response, negative = inhibition was inactive: 3.04%.

`COc1ccccc1NC(=O)c1cc(=O)[nH]c2ccccc12` was tested. Which Potency did it give?
The Potency was inconclusive: 29.9 µM [inhibitor, single point].

`O=c1[nH][nH]c2c(N=Cc3ccccc3O)ccc(F)c12` was tested. Which Potency did it give?
The Potency was active: 10.6 µM.

Which max response, negative = inhibition does the source give for `O=C(O)CNC(=O)c1nc(-c2ccccc2)n(-c2ccccc2)n1` here?
Its max response, negative = inhibition is inactive: -14.9%.

Which Potency does the source give for `Cc1ccc(C(=O)c2c(NC(=O)c3ccccc3)sc(C)c2C)cc1` here?
Its Potency is active: 11.9 µM.

With `Cc1cc(NC(=O)COc2ccc(C)c(C)c2)no1` as the compound, how does the max response, negative = inhibition read?
Its max response, negative = inhibition is inactive: 4.05%.

Which Potency does the source give for `O=C(/C=C/c1cccc([N+](=O)[O-])c1)c1ccc([N+](=O)[O-])o1` here?
The Potency was active: 5.32 µM.
